PubChem BioAssay AID1259405, NCATS | 2018
Test: 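Silenced genes that increase secreted GFP made by CHO cells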 (primary screen). Cell system: Chinese hamster CHO-K1 ovary cells with stable secreted eGFP expression. Reagents: single siRNA against mouse genes, 0.8 pmol siRNA per well (2 µl of 400 nM stock). Duration: 3 days. Measured: 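Per-well intracellular GFP measured by laser scanning cytometry, plus viability from ATP luminescence, each relative to plate median of non-targeting control wells, in %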. Scale: GFP, % of control: higher = more GFP per well, higher productivity. Call rule: 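Called active when intracellular GFP, relative to negative control, is at or above 120%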.
The whole screen tested about 50,000 reagents; below is a random part of them. About 4,000 of all reagents (8%) count as active. 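Mouse siRNA library applied to hamster cells; one well for each siRNA.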 The numbers tell different reagents against one gene apart. Further read-outs or replicates are left out here. Reagent sequences are not shown.

GFP, % of control, by gene knocked down and reagent
Sec62 (SEC62 homolog, preprotein translocation): #1 52.3 inactive; #2 57.1 inactive; #3 80 inactive
Fosl2 (fos-like antigen 2): #1 72.8 inactive; #2 93.1 inactive
Tbx19 (T-box 19): #1 71.3 inactive; #2 70 inactive; #3 96.6 inactive
Birc6 (baculoviral IAP repeat-containing 6): #1 81.4 inactive; #2 108 inactive; #3 61.2 inactive
Mecr (mitochondrial trans-2-enoyl-CoA reductase): #1 115 inactive; #2 80.2 inactive; #3 44.3 inactive
Prima1 (proline rich membrane anchor 1): #1 189 active; #2 29.2 inactive; #3 118 inactive; #4 57.4 inactive; #5 76 inactive; #6 110 inactive
Traf3 (TNF receptor-associated factor 3): #1 116 inactive; #2 131 active; #3 141 active
Fdx1 (ferredoxin 1): #1 102 inactive; #2 74.1 inactive; #3 72 inactive
Tespa1 (thymocyte expressed, positive selection associated 1): #1 72.8 inactive; #2 94.2 inactive; #3 70.9 inactive
Aldh7a1 (aldehyde dehydrogenase family 7, member A1): #1 88.4 inactive; #2 99.3 inactive; #3 65.7 inactive
Pycr3 (pyrroline-5-carboxylate reductase 3): #1 132 active; #2 86.9 inactive; #3 64.6 inactive
Cdca3 (cell division cycle associated 3): #1 68.6 inactive; #2 81.8 inactive; #3 77 inactive
Mybpc2 (myosin binding protein C, fast-type): #1 44 inactive; #2 74.2 inactive
Chga (chromogranin A): #1 195 active; #2 90.9 inactive
Csf1r (colony stimulating factor 1 receptor): #1 87.8 inactive
Lyst (lysosomal trafficking regulator): #1 86.9 inactive; #2 87.7 inactive; #3 54.1 inactive
Has1 (hyaluronan synthase 1): #1 92.6 inactive; #2 89.1 inactive; #3 89.5 inactive
Mast1 (microtubule associated serine/threonine kinase 1): #1 89.5 inactive
Dhx40 (DEAH-box helicase 40): #1 153 active; #2 64.1 inactive; #3 62.6 inactive
Slco1a1: #1 165 active; #2 60.2 inactive; #3 55.6 inactive
Fcsk (fucose kinase): #1 83.4 inactive; #2 70.7 inactive
Cep89 (centrosomal protein 89): #1 85.6 inactive; #2 103 inactive; #3 119 inactive
Tshb (thyroid stimulating hormone, beta subunit): #1 56.8 inactive; #2 59.6 inactive; #3 62.6 inactive
Runx3 (runt related transcription factor 3): #1 45.7 inactive; #2 62.8 inactive; #3 78 inactive
Pias3 (protein inhibitor of activated STAT 3): #1 121 active; #2 59.8 inactive; #3 156 active
Gtf2f1 (general transcription factor IIF, polypeptide 1): #1 97.5 inactive; #2 93.4 inactive
Mul1 (mitochondrial ubiquitin ligase activator of NFKB 1): #1 142 active; #2 86.4 inactive; #3 128 active
Zswim5 (zinc finger SWIM-type containing 5): #1 46.5 inactive; #2 194 active; #3 79.8 inactive; #4 83.1 inactive; #5 104 inactive; #6 124 active
Psmb7 (proteasome (prosome, macropain) subunit, beta type 7): #1 7.93 inactive; #2 6.02 inactive; #3 29.8 inactive

Part of the list above, set out differently:
gene knocked down | reagent no. | GFP, % of control | Outcome
Dhx40 (DEAH-box helicase 40) | 2 | 64.1 | inactive
Dhx40 (DEAH-box helicase 40) | 3 | 62.6 | inactive
Slco1a1 | 1 | 165 | active
Slco1a1 | 2 | 60.2 | inactive
Slco1a1 | 3 | 55.6 | inactive
Fcsk (fucose kinase) | 1 | 83.4 | inactive
Fcsk (fucose kinase) | 2 | 70.7 | inactive
Cep89 (centrosomal protein 89) | 1 | 85.6 | inactive
Cep89 (centrosomal protein 89) | 2 | 103 | inactive
Cep89 (centrosomal protein 89) | 3 | 119 | inactive
